According to US6485685B1, “Purifying agent, apparatus and method for forming purifying agent, and purifying method using the agent” (Toyota Jidosha Kabushiki Kaisha, priority 1997, dated 2002):

Assay: Deodorization test in sealed container with H2S-impregnated sponge; changes in H2S concentration with time
[1] = ozone gas supplied for five minutes, graph (B)

SMILES: O=[O+][O-] [ozone gas, ozone]
- time after which the concentration of H2S returned to substantially the original state [1]: 40 min
- time for which the concentration of H2S (odor) was lowered [1]: about 20 minutes
- concentration of H2S (odor) (ozone gas supplied into sealed container for five minutes, FIG. 5 graph (B)): lowered desirably
